Measurements from article PMC7830406.

T1: 14–3–3 ε, GAL4 DNA-binding domain fusion (bait) (Arabidopsis thaliana) (UniProt P48347)
T1 sequence: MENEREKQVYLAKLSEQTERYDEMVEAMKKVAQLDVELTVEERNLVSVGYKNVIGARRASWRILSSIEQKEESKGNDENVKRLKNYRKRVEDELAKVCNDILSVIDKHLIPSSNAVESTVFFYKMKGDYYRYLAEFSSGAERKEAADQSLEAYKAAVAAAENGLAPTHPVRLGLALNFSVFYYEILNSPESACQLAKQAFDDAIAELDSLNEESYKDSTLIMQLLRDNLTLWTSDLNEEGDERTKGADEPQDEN

T2: 14–3–3 ε-nYFP (Arabidopsis thaliana) (UniProt P48347)
T2 sequence: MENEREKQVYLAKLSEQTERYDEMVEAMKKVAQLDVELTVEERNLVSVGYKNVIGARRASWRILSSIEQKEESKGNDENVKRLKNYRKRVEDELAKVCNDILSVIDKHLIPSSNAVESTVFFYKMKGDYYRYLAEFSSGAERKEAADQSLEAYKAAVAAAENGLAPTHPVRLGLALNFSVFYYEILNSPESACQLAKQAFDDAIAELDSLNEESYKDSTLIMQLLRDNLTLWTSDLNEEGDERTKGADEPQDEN


How the values were obtained:
[1] = biological target: T1, 14–3–3 ε, GAL4 DNA-binding domain fusion (bait) (Arabidopsis thaliana); experiment: two-hybrid; yeast MaV203; bait 14-3-3 ε as GAL4 BD fusion, preys bZIP as GAL4 AD fusions; growth on SC -L/-T/-H + 10 mM 3AT, 28 °C, 5 days
[2] = biological target: T2, 14–3–3 ε-nYFP (Arabidopsis thaliana); experiment: split reporter; BiFC (split YFP, pBiFCt-2in1-CC, RFP as transformation control) in N. benthamiana leaf epidermal cells, confocal microscopy
[3] = biological target: bZIP52-nYFP (Arabidopsis thaliana); experiment: as above

Molecule | binding [1] | binding [2] | other results
bZIP52-S40A/S117A-cYFP (Arabidopsis thaliana) | – | no binding | –
bZIP52-cYFP (Arabidopsis thaliana) | – | binds | –
bZIP52-S117A-cYFP (Arabidopsis thaliana) | – | binds weakly | –
bZIP18-cYFP (protein, UniProt O22873 1-367) MEDPSNPQPNQSNLSQCPPLATAPTPAPVRGPYHRRAHSEVQFRLPEDLDLSEPFGGFDELGSEDDLFCSYMDIEKLGSGSGSASDSAGPSAPRSDNPFSAENGGAEAGNSRPRHRHSLSVDGSSTLESIEAKKAMAPDKLAELWVVDPKRAKRIIANRQSAARSKERKARYILELERKVQTLQTEATTLSAQLSLFQRDTTGLSSENTELKLRLQVMEQQAKLRDALNEQLKKEVERLKFATGEVSPADAYNLGMAHMQYQQQPQQSFFQHHHQQQTDAQNLQQMTHQFHLFQPNNNQNQSSRTNPPTAHQLMHHATSNAPAQSHSYSEAMHEDHLGRLQGLDISSCGRGSNFGRSDTVSESSSTM | – | – | binding [3]: binds

Further lines, with some results ahead:

binding [1] | binding [2] | Molecule | other results
no binding | – | bZIP52-S40A, GAL4 activation domain fusion (prey) (Arabidopsis thaliana) | –
– | binds weakly | bZIP52-S40A-cYFP (Arabidopsis thaliana) | –
binds | – | bZIP52, GAL4 activation domain fusion (prey) (Arabidopsis thaliana) | –
no binding | – | bZIP52-S40A/S117A, GAL4 activation domain fusion (prey) (Arabidopsis thaliana) | –
binds | – | bZIP52-S117A, GAL4 activation domain fusion (prey) (Arabidopsis thaliana) | –

Results are given in words; binding and its absence hold for the method and conditions named. Binding can be weak; no strength is given. Tags and fused reporters may be left off the sequences shown. For part of these data: Binding seen in cells or lysates may run through a third protein.
